{
  "sequences": {"note": "Amino acid sequences for entries named in this document (tags omitted). A change or cut given only in a name is not applied to a line headed by its entry. Residues count along the entry.", "UniProt P31431, residues 19-198": "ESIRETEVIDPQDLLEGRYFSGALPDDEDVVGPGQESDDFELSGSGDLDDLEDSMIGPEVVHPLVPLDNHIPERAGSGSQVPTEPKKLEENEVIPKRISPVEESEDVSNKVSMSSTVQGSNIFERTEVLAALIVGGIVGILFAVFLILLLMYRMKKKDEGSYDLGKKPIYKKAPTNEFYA", "UniProt P09038": "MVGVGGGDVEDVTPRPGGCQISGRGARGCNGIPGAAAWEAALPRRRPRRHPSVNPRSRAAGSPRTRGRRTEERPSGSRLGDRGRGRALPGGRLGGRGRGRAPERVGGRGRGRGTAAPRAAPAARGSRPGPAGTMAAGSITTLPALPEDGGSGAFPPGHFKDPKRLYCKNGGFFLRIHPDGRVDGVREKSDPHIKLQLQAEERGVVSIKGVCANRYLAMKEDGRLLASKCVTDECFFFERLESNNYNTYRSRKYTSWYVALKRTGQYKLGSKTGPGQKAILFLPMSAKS"},
  "source": "paper PMC8986318",
  "key": {"[1]": {"target": "SDC4 overexpressed on HeLa S3 GPC1 knockout cells (UniProt P31431)", "assay": "flow cytometry on cells; 2 x 10^5 detached HeLa S3 cells with 5 µg recombinant FGF2-GFP in 400 µl PBS, 1 hr at RT; GFP intensity normalised to wild-type cells; only the binder purified"}, "[2]": {"target": "T1, GPC1 overexpressed on HeLa S3 cells (UniProt P35052)", "T1 sequence (chain, GPI anchor; heparan sulfate chains)": "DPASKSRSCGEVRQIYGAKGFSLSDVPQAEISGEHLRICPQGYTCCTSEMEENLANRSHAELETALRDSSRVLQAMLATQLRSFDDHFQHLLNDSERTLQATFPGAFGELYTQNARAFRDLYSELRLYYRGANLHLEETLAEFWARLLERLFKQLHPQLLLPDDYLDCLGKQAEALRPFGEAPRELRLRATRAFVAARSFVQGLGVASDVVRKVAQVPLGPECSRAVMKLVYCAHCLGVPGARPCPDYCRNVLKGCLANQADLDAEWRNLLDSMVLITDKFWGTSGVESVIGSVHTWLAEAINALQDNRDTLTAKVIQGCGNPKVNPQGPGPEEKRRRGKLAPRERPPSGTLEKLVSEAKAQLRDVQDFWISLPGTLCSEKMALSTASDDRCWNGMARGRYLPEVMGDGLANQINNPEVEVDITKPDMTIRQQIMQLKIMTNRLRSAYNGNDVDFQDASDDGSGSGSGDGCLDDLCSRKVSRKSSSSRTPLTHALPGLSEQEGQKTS", "assay": "flow cytometry on cells; 2 x 10^5 detached HeLa S3 cells with 5 µg recombinant FGF2-GFP in 400 µl PBS, 1 hr at RT; GFP intensity normalised to wild-type cells; only the binder purified"}},
  "note": "No constants are given. Whether binding was seen depends on the method and setting. For some assays here: Binding calls can cover weak binding; strength is not graded here.",
  "data": [
    {"substance": "His-FGF2-GFP (recombinant FGF2-GFP) (from UniProt P09038) (ligand)", "values": [
      {"measurement": "binding", "setting": "[1]", "result": "no binding (tested: 5 µg FGF2-GFP in 400 µl)"},
      {"measurement": "binding", "setting": "[2]", "result": "binds"}
    ]}
  ]
}
